This note sets out measurements from US20030144495, “Drosophila recombination-associated protein and methods for use” (Albert Einstein College of Medicine of Yeshiva University, published 2003).

No signal at the amounts used counts as a negative. Protein sequences can lack the tags named with them.

The data set deals with T1, DRAP (recombinant) (Drosophila melanogaster).
T1 sequence (limits assumed): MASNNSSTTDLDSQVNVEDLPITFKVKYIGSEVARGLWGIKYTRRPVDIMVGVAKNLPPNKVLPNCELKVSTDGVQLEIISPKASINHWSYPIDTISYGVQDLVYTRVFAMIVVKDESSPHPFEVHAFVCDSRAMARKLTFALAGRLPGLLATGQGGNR
Description: enzyme reaction in vitro. The following applies: no nuclease degradation, 37 C 30 min; catalysis only, not binding; purified recombinant protein; label: 5'-32P; single-stranded DNA.

As to “GGTACCCGGGGATCCTCTAGAGTCGACCTGCAG [pUC19 polylinker 33-mer]”, the “activity on this sequence” value is on record as “not active”.
